# Reference: patent US6602708B1, “Neural cultures” (CellFactors plc, priority 1994, dated 2003)
# At least one compound was matched to its structure with a doubt left.
# Tested on: raphe clone 1 cells
# Assay: raphe clone 1 cells at non-permissive temperature (39° C.), survival and differentiation
# Assay type: cell-based, rat
# Conditions: 10 μM plus fibroblast growth factor, up to 96 h
compound,measurement,value
CC1=C(/C=C/C(C)=C/C=C/C(C)=C/C(=O)O)C(C)(C)CCC1 [retinoic acid],cell survival,greatly enhanced
